PubChem BioAssay AID1259425 – University of Nebraska Medical Center, 2018

Purpose: 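Seek colon cancer weak points whose silencing resembles KSR1 loss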 (primary screen)
System: HCT116 human colon cancer cells
Reagent: siRNA pool against human genes, 50 nM siRNA
Measured: 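After 50 nM siRNA pool, branched-DNA assay measures six marker transcripts per well, minus blank, normalised to the geometric mean of two housekeeping transcripts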
Scale: BNIP3L mRNA: higher = more BNIP3L transcript after knockdown
The deposit covers about 14,000 reagents; this is a random part of them. Further read-outs or replicates are left out here. Not stated in the record: the time to read-out.

{"gene":"USF1 (upstream transcription factor 1)","BNIP3L mRNA, set 1":0.0901}
{"gene":"TRIM11 (tripartite motif containing 11)","BNIP3L mRNA, set 1":0.157}
{"gene":"HCN1","BNIP3L mRNA, set 1":0.119}
{"gene":"SFTPA2B (retired record)","BNIP3L mRNA, set 1":0.0994}
{"gene":"CCN1 (cellular communication network factor 1)","BNIP3L mRNA, set 1":0.0513}
{"gene":"SUGP2 (SURP and G-patch domain containing 2)","BNIP3L mRNA, set 1":0.198}
{"gene":"TMED5 (transmembrane p24 trafficking protein 5)","BNIP3L mRNA, set 1":0.171}
{"gene":"FASTKD2 (FASTK mitochondrial RNA regulator 2)","BNIP3L mRNA, set 1":0.137}
{"gene":"CDC50A (cell division cycle 50 P4-ATPase accessory subunit A)","BNIP3L mRNA, set 1":0.0772}
{"gene":"TSPYL5 (TSPY like 5)","BNIP3L mRNA, set 1":0.113}
{"gene":"DMTF1 (cyclin D binding myb like transcription factor 1)","BNIP3L mRNA, set 1":0.194}
{"gene":"FXYD6 (FXYD domain containing ion transport regulator 6)","BNIP3L mRNA, set 1":1.43}
